Reference: patent publication US7476650B2, “Enzyme inhibition” (Yale University, priority 1999, dated 2009)
Some results were stated once for a whole list of compounds, not compound by compound. At least one structure is not confirmed: it was looked up by name or label, or the drawing left a doubt.

Test system: bovine aortic endothelial (BAE) cells
Experiment: BAE cell proliferation ([methyl-3H]-thymidine incorporation)
Assay type: cell-based
Description: BAE cells were cultured at 7% CO2 and were grown in DMEM supplemented with 10% FBS, 1% penicillin/streptomycin (GIBCO), and 1 mM sodium pyruvate.
Approximately 1000 BAE cells were plated into each well of a 96-well culture plate. After an overnight incubation, different concentrations of proteasome inhibitors were added and incubation was continued for another five days. […] Subsequently, 74 kBq of [methyl-^3H]-thymidine was added to each well of the plate and the plate was incubated for another additional 4 hours. Cells were harvested using a Skatron Cell Harvester and incorporated radioactivity was quantified using liquid scintillation. Proliferation of BAE cells was assayed in triplicate in the presence of different concentrations of peptide epoxides.
Perturbation of the proteasome activity can result in inhibition of cell growth, and can further lead to cell death at elevated concentration of the proteasome inhibitors. This provides an excellent cell-based assay to assess the importance of each catalytic activity of the 20S proteasome in degradation of proteins involved in cell growth. We measured inhibition of proliferation of bovine aortic endothelial (BAE) cells with our α′,β′-epoxyketone-based inhibitors with varying degree of specificity for the PGPH activity.

| Compound | fold higher concentration needed to cause 50%-inhibition of proliferation in comparison to N-dimethylaminobenzoyl-PFL-EX and isooctanioc-PFL-Ex |
| --- | --- |
| CCCC[C@H](NC(C)=O)C(=O)N1CCC[C@H]1C(=O)N[C@@H](Cc1ccccc1)C(=O)N[C@@H](CC(C)C)C(=O)[C@@]1(C)CO1 [Ac-NorLPFL-Ex] | greater than 100 fold |
| CC(=O)NCC(=O)N1CCC[C@H]1C(=O)N[C@@H](Cc1ccccc1)C(=O)N[C@@H](CC(C)C)C(=O)C1(C)CO1 (some centres unmarked) [Ac-GPFL-Ex] | greater than 100 fold |
